Test results from patent publication US6017719A, “Positive and positive/negative cell selection mediated by peptide release” (Nexell Therapeutics, Inc., priority 1995, dated 2000).
Where “and” joins values, the source holds several entries; their conditions need not be identical. Equal values may be shown once. At least one peptide structure holds a part that was inferred or is arguable (an end, a ring closure or a residue). Ends that are not written are not given here.

Assays:
[1] = system: anti-CD34 antibody, 9069; assay: KG1a cell FACS assay: release by peptides of 9069 antibody prebound to cells; assay type: binding, mouse
Method: These experiments were performed following a similar procedure to the binding experiments except that the anti-CD34 antibody, 9069, was incubated with KG1a cells first, followed by addition of peptide. The experimental outline is schematically shown below:
KG1a Cell Assay to Test for Release by Peptides of 9069 Antibody Bound to Cells.
Anti-CD34 antibody, 9069 (0.i microgram) was incubated with KG1a cells (10^6) for 30 minutes at room temperature (about 22° C.). Molar excesses of 10^5 to 10^6 times the amount of peptide to antibody were tested for the ability to displace the prebound antibody. Peptides were incubated with the antibody-cell complexes for 30 minutes at room temperature (approximately 22° C.). Remaining bound antibody was detected using the FITC-goat anti-mouse IgG reagent described in Example 3.
Analysis of the variant peptide, 9069Q2, was done in parallel with the 9069N peptide. This analysis provides quality control information on reagents including the antibody, 9069, and the cells, KG1a. FACScan assays included a negative control of KG1a cells alone and positive control samples of KG1a cells with the 9069 antibody bound and detected with a secondary antibody, goat-anti-mouse IgG-FITC.

[2] = system: CD34 cells; assay: Stem cell selection with 9069 antibody, sheep-anti-mouse beads and releasing agent; assay type: cell-based, human
[3] = system: CD34+ cells; assay: CD34+ cell isolation on automated cell separation apparatus, then culture with cytokines; assay type: cell-based, human
Method: CD34+ cells were also isolated from human mobilized peripheral blood using the automated cell separation apparatus described in U.S. Pat. No. 5,536,475 and the method essentially as described in WO 95/24969 Both U.S. Pat. No. 5,536,475 and WO 95/24969 are herein expressly incorporated by reference. Chymopapain was used as the control releasing agent, and 25 mg of the peptide 9069N (Table 11) was used as the test releasing agent.

[4] = system: CD34+ cells; assay: CD34+ cell selection from G-CSF mobilized peripheral blood on Isolex 300SA with peptide release; assay type: cell-based, human
[5] = system: CD34+ cells; assay: Colony assay of peptide-released CD34+ cell final products; assay type: cell-based, human; settings: day 14, 2,000 cells plated per dish
[6] = system: CD34+ cells; assay: Isolex 50 positive selection of CD34+ cells with peptide release; assay type: cell-based, human; settings: one line per donor
[7] = system: CD34+ cells; assay: Isolex 50 simultaneous positive/negative selection (anti-CD34 plus anti-CD10, CD19, CD20) with peptide release; assay type: cell-based, human; settings: one line per donor
[8] = system: CD34+ cells; assay: Isolex 50 sequential positive/negative selection (peptide release, then B-cell purge); assay type: cell-based, human; settings: one line per donor
[9] = system: anti-glu-glu monclonal antibody; assay: Competitive ELISA: displacement of anti-glu-glu antibody bound to SCA-EE; assay type: binding; settings: SCA-EE coated plates, 50-300 ng/ml anti-EE
[10] = Table 10, mobilized peripheral blood (0.68% CD34 start), ROTATOR 0.5 mg/30 min
[11] = Table 10, mobilized peripheral blood (0.68% CD34 start), ROTATOR 2.0 mo/15 min

Ac-QQGWFPKD [Peptide 9069N, Ac-Gln-Gln-Gly-Trp-Phe-Pro-Lys-Asp]
effect of pH titration on release activity ([1]; 9069 antibody bound to KG1a cells): no effect on release activity | Competition % ([1]; Table 11, displacement of prebound 9069 from KG1a cells): 97% | displacement of prebound 9069 antibody from KG1a cells (in words) ([1]; cell-based KG1a FACS assay): able to displace prebound 9069 antibody from KG1a cells | specific stem cell release (in words) ([2]; Isolex 50 experiments): functioned well for specific stem cell release | % CD34 CELLS Negative Fraction ([2]; Table 9, bone marrow (3.66% CD34 start), 2.5 mg peptide): 0.23% | % CD34 CELLS Negative Fraction ([2]; Table 10, mobilized peripheral blood (0.68% CD34 start), NUTATOR 0.5 mg/15 min): 0.15% | % CD34 CELLS Negative Fraction ([2]; Table 10, mobilized peripheral blood (0.68% CD34 start), NUTATOR 0.5 mg/30 min): 0.09% | % CD34 CELLS Negative Fraction ([2]; Table 10, mobilized peripheral blood (0.68% CD34 start), NUTATOR 1.0 mg/15 min): 0.13% | % CD34 CELLS Negative Fraction ([2]; Table 10, mobilized peripheral blood (0.68% CD34 start), NUTATOR 2.0 mg/15 min): 0.11% | % CD34 CELLS Negative Fraction ([2]; Table 10, mobilized peripheral blood (0.68% CD34 start), ROTATOR 0.5 mg/15 min): 0.45% | % CD34 CELLS Negative Fraction [2, 10]: 0.19% | % Yield [2, 10]: 65% | % CD34 CELLS Negative Fraction ([2]; Table 10, mobilized peripheral blood (0.68% CD34 start), ROTATOR 1.0 mg/15 min): 0.12% | % CD34 CELLS Negative Fraction [2, 11]: 0.18% | % CD34 CELLS Positive Fraction [2, 11]: 69% | purity of the positively selected CD34+ cells ([3]; mobilized peripheral blood, 25 mg peptide 9069N or chymopapain control): greater than 90% | expansion in cell number ([3]; released CD34+ cells of first experiment, culture with cytokines for 12 days): 100 fold | CAPTURE (%) ([4]; liquid 9069N (Liq. Pep), 1.0 mg/mL, 30 min, one line per donor): 0.00% | MNC in the granulocyte gate ([4]; positive fraction, average): 2.26±2.24% | MNC in the lymphocyte gate ([4]; positive fraction, average): 92.44±4.56% | MNC in the monocyte gate ([4]; positive fraction, average): 5.13±3.40% | average total colonies formed [5]: 386±202 colonies | BFU-Es counted ([5]; average of 10 products): 118±56 colonies | Clusters counted ([5]; average of 10 products): 52±36 colonies | Mixed colonies counted ([5]; average of 10 products): 8±4 colonies | CELL # FINAL PRODUCT ([6]; 9069N 1 mg/mL, 30 min): 1.8 × 10^7 and 9.9 × 10^6 | CELL # NEGATIVE FRACTION ([6]; 9069N 1 mg/mL, 30 min): 5.38 × 10^9 and 5.39 × 10^9 and 5.44 × 10^9 | % B-CELL NEGATIVE FRACTION [6]: 9.10% | % CD34+ NEGATIVE FRACTION [6]: 0.5% and 0.07% | B-CELL LOG DEPLETION [6]: 3.0 log | % B-CELL NEGATIVE FRACTION [7]: 0.41% and 0.42% | % CD34+ NEGATIVE FRACTION [7]: 0.61% and 0.59% and 0.19% | CELL # FINAL PRODUCT [7]: 2.11 × 10^7 and 2.10 × 10^7 and 9.6 × 10^6 | CELL # NEGATIVE FRACTION [7]: 4.78 × 10^9 and 5.12 × 10^9 and 5.02 | % B-CELL CAPTURE [8]: 86.0% | % B-CELL FINAL PRODUCT [8]: 0.1% and 0.11% and 0.91% | % B-CELL NEGATIVE FRACTION [8]: 6.60% | % CD34+ NEGATIVE FRACTION [8]: 0.41% and 0.47% and 0.16% | B-CELL LOG DEPLETION [8]: 4.7 log and 4.4 log | CELL # FINAL PRODUCT [8]: 1.54 × 10^7 and 1.62 × 10^7 and 6.3 × 10^6 | CELL # NEGATIVE FRACTION [8]: 5.17 × 10^9 and 5.3 × 10^9 and 5.48

AEEEEYMPMEG [glu-glu peptide, AEEEEYMPMEG]
displacement of bound anti-EE antibody [9]: could displace bound anti-EE antibody
